Results reported in patent US11850313B2, “Method and compositions for protecting tissue” (The London Health Sciences Centre Research Inc., priority 2019, dated 2023).
At least one compound was matched to its structure with a doubt left.

Tested on: kidneys
Assay: Injury scores for kidneys stored in H2S versus UW solution

S [H2S, Hydrogen sulfide]
tissue injury (injury scores): remarkably less
